This is an account of results in PMC7819943, “Rice protein-binding microarrays: a tool to detect cis-acting elements near promoter regions in rice”.

The list shows a part of the results.

The target in this assay is T1, OsSMF1 (Oryza sativa, UniProt Q6ZLB0 1-436).
T1 sequence: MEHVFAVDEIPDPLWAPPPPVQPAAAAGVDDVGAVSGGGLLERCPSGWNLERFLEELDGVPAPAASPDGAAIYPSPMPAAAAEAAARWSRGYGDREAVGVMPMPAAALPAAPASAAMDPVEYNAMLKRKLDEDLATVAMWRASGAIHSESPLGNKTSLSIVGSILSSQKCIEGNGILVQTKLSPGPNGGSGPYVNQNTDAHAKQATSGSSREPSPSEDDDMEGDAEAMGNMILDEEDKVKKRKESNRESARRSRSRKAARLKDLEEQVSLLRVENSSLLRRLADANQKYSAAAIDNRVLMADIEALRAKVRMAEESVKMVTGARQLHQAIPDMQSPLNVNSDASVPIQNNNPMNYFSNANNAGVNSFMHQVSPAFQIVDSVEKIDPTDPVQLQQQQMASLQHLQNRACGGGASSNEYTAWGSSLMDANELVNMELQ
The experiment in a line: protein-binding microarray (RPBM); PBS, 2% BSA, 51.3 ng/ul salmon testes DNA, 50 uM zinc acetate, 200 nM TF, 25 C, 1 h; high values mean tight binding. The following applies: protein: recombinant; tags: N-terminal polyhistidine and DsRed monomer fusion (pET32a); chain copies: 2; label: CyDye5-dUTP incorporated in the synthesized complementary strand; 3' TTTTT single-stranded linker to array surface; dsDNA, one strand shown. The method, boiled down:
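Transcription factors were made in E. coli BL21-CodonPlus as N-terminal fusions to a polyhistidine tag and DsRed, then purified on Ni–NTA. After primer extension with Cy5-dUTP and blocking with 2% BSA, a custom Agilent array was exposed for 1 h at 25 °C to 200 nM protein in PBS, 2% BSA, salmon testes DNA and 50 µM zinc acetate. Washed arrays were scanned on an Axon 4000B, and the binding signal is per-feature fluorescence intensity in arbitrary units.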
Consider “GCCAGACCAAACAGACACGTACTACATCCTGCAGCAAGCCCGGAGTCACCTAGTGCAG”, for which the binding signal was 5060 fluorescence intensity (a.u.).

Regarding “AGCCCCACGCTCCGTCACACGCTGACTCAGCCGCCACGTACGGAGTCACCTAGTGCAG”, the binding signal was 25400 fluorescence intensity (a.u.). Turning to “TCATCCCAGCCGTCCACCTAATCCGACGCTCCAAACCCCACGGAGTCACCTAGTGCAG”, the binding signal was 3620 fluorescence intensity (a.u.).

In the case of “CGCATGGATCCTAATGCGAATCTGACGTCTCTCCACTTGACGGAGTCACCTAGTGCAG”, the binding signal is 4210 fluorescence intensity (a.u.).

Consider “GGAGGTTAAGTGGACTTATTCCACCACCTCACGGGGTTTACGGAGTCACCTAGTGCAG”, for which the binding signal is 3520 fluorescence intensity (a.u.). Turning to “CCGAAAAGCGCCCGCAAACCCGCGTCGCGTCACCATGCCACGGAGTCACCTAGTGCAG”, the binding signal is 6300 fluorescence intensity (a.u.). For the sequence “TGGGAAAAGGGAGTATAGAACACACCCTAATTCTTTAATACGGAGTCACCTAGTGCAG”, the binding signal was 30300 fluorescence intensity (a.u.). Consider “ATATCTATCTGACATGTCACTTTAGTGTTCATGTGGCATGCGGAGTCACCTAGTGCAG”, for which the binding signal was 8720 fluorescence intensity (a.u.). Take “ACTCTTTATATCATCACCACAGATTCTCCCTCCACTTATACGGAGTCACCTAGTGCAG”: the binding signal was 3860 fluorescence intensity (a.u.). Consider “GGATGCTAAGGTGTTTTGCTTACTCATGCTCCAAAATAGTCGGAGTCACCTAGTGCAG”, for which the binding signal is 7420 fluorescence intensity (a.u.).

As for “ACTTGCGAGAAGAACTTCAGGGTGTGACACATGCCATGCGCGGAGTCACCTAGTGCAG”, the binding signal is 4350 fluorescence intensity (a.u.). On to “GCGCCTACGAGAGCACGCGGTGCGACGTGTGCGGGTCCGGCGGAGTCACCTAGTGCAG”, for which the binding signal was 3720 fluorescence intensity (a.u.). Under “TCTGTCTGTGGGTTGTATGAGCTGTCTTTATATCCGTCTGCGGAGTCACCTAGTGCAG” stands 4120 fluorescence intensity (a.u.); under “TACGGACTCCAAGACGCAGCGTGTGTATGACAGGTGGGACCGGAGTCACCTAGTGCAG”, 4250 fluorescence intensity (a.u.); under “ATGATGTATGGCATGTTCTAGACTGTGCCACCGTTTGGAGCGGAGTCACCTAGTGCAG”, 3200 fluorescence intensity (a.u.). For “AGTTAAGGGAGTCAGAGTGAACTTATTCCTCTATCAGCAGCGGAGTCACCTAGTGCAG” the value was 21600 fluorescence intensity (a.u.).

Regarding “TGAATGACATGATTCGGCGTAACGTGACTGTCCCATTATCCGGAGTCACCTAGTGCAG”, the binding signal was 4070 fluorescence intensity (a.u.). “AACTTATACGTATAACCTTTATATACGTGTCCTTAACGATCGGAGTCACCTAGTGCAG”: the binding signal is 4720 fluorescence intensity (a.u.). For “TCCATAAACATGCAAGACCAAATTCAACTTCTACAAGTTGCGGAGTCACCTAGTGCAG” the value was 3430 fluorescence intensity (a.u.); for “GTGGTGATTTCATCAATTTTAAGATACGCCGGCTCGGTTTCGGAGTCACCTAGTGCAG”, 25600 fluorescence intensity (a.u.); for “TGGGGCCGGATCGACCCGGGCCCACGTGTCAGCGTCTCCGCGGAGTCACCTAGTGCAG”, 15000 fluorescence intensity (a.u.).

For the sequence “TCTACACCTATTGTGATGTGGAATAATTCTCCTCAAACCTCGGAGTCACCTAGTGCAG”, the binding signal was 3230 fluorescence intensity (a.u.). For “ACGGTAGGAGCTGCAGCGGTCGGGGTGGGAGCAGGGGTCGCGGAGTCACCTAGTGCAG” the value was 3440 fluorescence intensity (a.u.); for “TCCACCCTCGCCGTGTCAAAGGACTCCAATGCGTCACAAACGGAGTCACCTAGTGCAG”, 3420 fluorescence intensity (a.u.); for “GCCCGACGGTGACTGGACTCACTTAGCGGTGACTGGTTCGCGGAGTCACCTAGTGCAG”, 7480 fluorescence intensity (a.u.). As for “ATTGAGTACTAGTCCTGAATTTGATGACGTTTATCTTATCCGGAGTCACCTAGTGCAG”, the binding signal was 6860 fluorescence intensity (a.u.). Regarding “GTAATTGTATATGTGGATCACGTCACCTAGATTTACTTAACGGAGTCACCTAGTGCAG”, the binding signal is 3810 fluorescence intensity (a.u.). Turning to “GTCCCTCCATGCACGCCCAAATAGCCAGTCACCTCCGCTCCGGAGTCACCTAGTGCAG”, the binding signal is 3360 fluorescence intensity (a.u.). “TGATTAGTTCAGGTGGTGGTTTGGGCCTGTTGCAACGTGGCGGAGTCACCTAGTGCAG”: the binding signal is 5090 fluorescence intensity (a.u.). Under “CTATATTGTTCATGCCCTCGTGCGCGTACACAATCATAGTCGGAGTCACCTAGTGCAG” stands 3360 fluorescence intensity (a.u.); under “GTCCGAGACTCCGAGTCCACCTCTGCCACTGCCACGACGCCGGAGTCACCTAGTGCAG”, 4880 fluorescence intensity (a.u.). With “AGATCTGCACAACCATAACGGCTAAAGAGGAGATACCAAACGGAGTCACCTAGTGCAG”, the binding signal was 65500 fluorescence intensity (a.u.). “AAGATCAATCTGAAGAGTAGGCTCCACGTGTAGATGGGGACGGAGTCACCTAGTGCAG”: the binding signal was 8830 fluorescence intensity (a.u.). As to “ACTAGTAATGCCACGCATCGTATTATCCAATCTGAGATACCGGAGTCACCTAGTGCAG”, the binding signal is 4560 fluorescence intensity (a.u.). “GGTGACGGCTGGTGTGGGTGTAGGGTGGCCGCGCGGTACGCGGAGTCACCTAGTGCAG”: the binding signal was 19900 fluorescence intensity (a.u.). For the sequence “AGCATTAAAATGTGGACGAAAGAAACTAATTGCATAGTTTCGGAGTCACCTAGTGCAG”, the binding signal is 13600 fluorescence intensity (a.u.). For “CTGATCGCGTCACTTTACGCGTGAAATTTCGTAATAAAGGCGGAGTCACCTAGTGCAG”, the binding signal was 3740 fluorescence intensity (a.u.). For the sequence “CCTGGTTGGTTTGGCTCGCACGTGGCGCGTCGTCCTACGCCGGAGTCACCTAGTGCAG”, the binding signal was 5510 fluorescence intensity (a.u.). Take “GATGGATTACCATATTGCATCATCACTCATCAGTAAGAAACGGAGTCACCTAGTGCAG”: the binding signal was 3710 fluorescence intensity (a.u.). For the sequence “GCATCTTTGGAGCGTTTGTAGGAGGACACGTGGCGGCTTACGGAGTCACCTAGTGCAG”, the binding signal was 13700 fluorescence intensity (a.u.). For “GCAGTGGATCCAGTTGACGGTTGCAAGAGGAAGATGCTTACGGAGTCACCTAGTGCAG” the value was 3350 fluorescence intensity (a.u.). As to “AATTTCTAGTATTACAGTTGAGGGATACAATTTAGATTCACGGAGTCACCTAGTGCAG”, the binding signal was 25000 fluorescence intensity (a.u.).
